Columns and labels:
[1] = clinical; settings: human, in vivo, po, 30 mg
[2] = nifedipine 30 mg, apatinib 750 mg daily, vs single administration

COC(=O)C1=C(C)NC(C)=C(C(=O)OC)C1c1ccccc1[N+](=O)[O-] [Nifedipine, nifedipine]
Increase of AUC0–36h on coadministration with apatinib [2]: 80% | Increase of AUC0–48h on coadministration with apatinib [2]: 83% | Increase of Cmax on coadministration with apatinib [2]: 64% | AUC0–36h geometric mean ratio (+ apatinib / alone) (nifedipine, N=20): 1.80 | AUC0–48h geometric mean ratio (+ apatinib / alone) (nifedipine, N=20): 1.83 | Cmax geometric mean ratio (+ apatinib / alone) (nifedipine, N=20): 1.64 | Difference of Tmax before and after coadministration of apatinib (nifedipine, Wilcoxon signed-rank test): no significant difference | Cmax [1]: 23.2 ng/mL | Tmax [1]: 24 h
